# Assay results published in PubChem BioAssay AID540276 (National Center for Advancing Translational Sciences (NCATS), 2011).
# The campaign covered roughly 300,000 compounds. About 5,400 (1.8%) were called active. The inconclusive results got no clear call from the source; some entries with a clear call stand among them for comparison. The call rests on the fitted dose curve; tested in HEK293 cells. Where the call is inconclusive, the potency comes from a doubtful curve fit.
# Assay: qHTS for inhibitors of binding or entry into cells for Marburg Virus
# Conditions: Marburg virus pseudotyped entry inhibition, cell reporter; activity change, negative = inhibition: at 37.8 µM (top of the series) unless noted
# On the % scale 0 is the no-effect control and ±100 the full control effect; potency means the concentration at half of the fitted maximal effect.
SMILES,"activity change, negative = inhibition",Potency
COC(=O)c1c(NC(=O)Cc2ccccc2)sc(C)c1C,inactive: 7.42%,–
O=C(CCc1ccccc1)NC(=S)Nc1cccc(C(=O)O)c1,–,"inconclusive: 20 µM [inhibitor, single point]"
CCc1nc(SCC(=O)c2cccs2)c2oc3ccccc3c2n1,–,"inconclusive: 4.61 µM [activator, single point]"
O=C(NCCCN1CCCC1=O)c1cc(=O)c2ccccc2o1,inactive: 3.68%,–
CC(=O)/C(=N/Nc1cccc(Cl)c1)N1CCOCC1,–,"inconclusive: 1.64 µM [inhibitor, partial curve, poor fit]"
CC(NC(=O)/C=C/c1ccc(Br)cc1)c1ccc(Cl)cc1 (centres undefined),–,"inconclusive: 3.26 µM [activator, partial curve, poor fit]"
COc1ccccc1C1CN=NC12CCCc1ccccc1C2=O (centres undefined),inactive: -7.98%,–
COC(=O)N/N=C/c1cn(Cc2ccc(Cl)cc2Cl)c2ccccc12,–,active: 13 µM
CC1CC(C)(C)N2C(=O)C3(Nc4ccccc4S3)c3cccc1c32 (centres undefined),–,"inconclusive: 29.1 µM [inhibitor, single point]"
CC(Sc1ncnc2sccc12)C(=O)Nc1ccc(S(=O)(=O)N2CCOCC2)cc1 (centres undefined),inactive: 15%,–
CC1CCC2=NN(C(=O)c3ccco3)C(O)(C(F)(F)F)C2C1 (centres undefined),–,"inconclusive: 8.91 µM [inhibitor, partial curve, poor fit]"
Cc1ccc2ncc(C(=O)c3ccc(C)c(C)c3)c(S(=O)(=O)c3ccccc3)c2c1,–,"inconclusive: 12.6 µM [inhibitor, partial curve, poor fit]"
CC(=O)Nc1ccc(NC(=O)C(C)OC(=O)c2cccc(S(=O)(=O)N3CCCCCC3)c2)cc1 (centres undefined),–,"inconclusive: 12.6 µM [activator, single point]"
NNc1ccc(Cc2ccc(Cl)cc2Cl)nn1,–,"inconclusive: 1.12 µM [inhibitor, partial curve, poor fit]"
COc1cccc(OCCNC(=O)Nc2cc(F)c(F)cc2Cl)c1,–,"inconclusive: 7.08 µM [activator, full curve, poor fit]"
CC1(C)CC(=O)C2=C(C1)C(c1cn(-c3ccccc3)nc1-c1ccccc1)C(C#N)=C(N)O2 (centres undefined),–,"inconclusive: 11.2 µM [inhibitor, partial curve, poor fit]"
O=[N+]([O-])c1cc([As](=O)(O)c2ccc(O)c([N+](=O)[O-])c2)ccc1O,–,"inconclusive: 35.5 µM [activator, single point]"
Cc1ccc(NC(=O)COC(=O)C2CC2)cc1Cl,inactive: -3.32%,–
CCC1CCCCN1C(=O)c1ccc(OC2CCN(C(=O)CCOC)CC2)cc1 (centres undefined),inactive: 0.775% [at 46.1 µM],–
N#Cc1ccc(OCC(=O)OCC(=O)NCCC2=CCCCC2)cc1,–,"inconclusive: 31.6 µM [activator, single point]"
O=C(Nc1cccc(F)c1)c1ccc(CSc2ccccc2)o1,–,active: 7.31 µM
O=S(=O)(Nc1cccc2ccccc12)c1cccs1,inactive: 9.05% [at 46.1 µM],–
Cc1cccc(NC(=O)C(=O)NCC2CCCN2S(=O)(=O)c2cccs2)c1C (centres undefined),inactive: 0.689%,–

SMILES,"activity change, negative = inhibition",Potency
COc1cccc(NC(=O)N2CCC(NC(=O)c3ccco3)CC2)c1,inactive: -23.8% [at 46.1 µM],–
N#Cc1ccc2c(c1)C[C@]1(c3ccsc3)OC3=C(C(=O)OC4(CCCCC4)C3)[C@H]2O1,–,"inconclusive: 0.075 µM [inhibitor, partial curve, poor fit]"
CSc1nnc(C)c(/C=C/Nc2ccc(F)cc2F)n1,–,"inconclusive: 7.08 µM [inhibitor, full curve, poor fit]"
Oc1ccc(-c2nc3c4c(ncn3n2)-c2ccccc2CC42CCCC2)cc1,inactive: 0.507%,–
O=C(CNC(=O)c1cccc(S(=O)(=O)N2CCc3ccccc32)c1)Nc1ccccc1Br,–,"inconclusive: 7.08 µM [inhibitor, full curve, poor fit]"
CCCOc1ccc(CN2C(=O)C(=O)c3cccc(C)c32)cc1,–,"inconclusive: 22.4 µM [inhibitor, single point]"
COc1ccc(CC(=O)O/N=C(\N)c2ccccn2)cc1,–,"inconclusive: 2.24 µM [activator, full curve, poor fit]"
Cc1ccc(/C=C2\C(=O)NC(=S)N(c3ccccc3F)C2=O)s1,–,"inconclusive: 17.8 µM [inhibitor, single point]"
Cc1cc(C)c2c(N)c(C(=O)C(C)(C)C)sc2n1,inactive: 11.7% [at 46.1 µM],–
CCc1cccc(C)c1Nc1c(-c2ccc(N(C)C)cc2)nc2cnccn12,–,"inconclusive: 10 µM [inhibitor, partial curve, poor fit]"
CCC(=O)NC(c1cccs1)c1cc([N+](=O)[O-])c2cccnc2c1O (centres undefined),–,"inconclusive: 35.5 µM [inhibitor, partial curve, poor fit]"
CC(OC(=O)Cc1c[nH]c2ccccc12)C(=O)Nc1ccc(S(N)(=O)=O)cc1 (centres undefined),–,"inconclusive: 1.26 µM [inhibitor, single point]"
CC(=O)Nc1nc(NC(=O)/C=C/c2ccccc2)n(-c2ccccc2)n1,–,"inconclusive: 2.82 µM [inhibitor, full curve]"
Cc1ccc(S(=O)(=O)Nc2ccccc2N=Cc2ccc([N+](=O)[O-])cc2[N+](=O)[O-])cc1,–,"inconclusive: 35.5 µM [inhibitor, single point]"
CC1(c2ccc3c(c2)OCO3)NC(=O)N(CC(=O)Nc2ccc(N3CCOCC3)cc2)C1=O (centres undefined),–,"inconclusive: 2.31 µM [inhibitor, single point]"
Cc1cc(C)cc(NC(=S)N(CCN2CCCCC2)Cc2ccco2)c1,–,"inconclusive: 1.26 µM [inhibitor, full curve, poor fit]"
CC(NC(=S)Nc1ccccc1Cl)C(c1ccccc1)N1CCOCC1 (centres undefined),–,"inconclusive: 2.31 µM [inhibitor, single point]"
CCCSCCCNC(=O)c1sc2nc(C)cc(C)c2c1-n1cccc1,–,"inconclusive: 6.31 µM [inhibitor, partial curve, poor fit]"
Cc1cccc2cc(C(c3nnnn3C(C)(C)C)N(Cc3ccco3)CC3CCCO3)c(=O)[nH]c12 (centres undefined),–,"inconclusive: 14.6 µM [inhibitor, partial curve, poor fit]"
O=[N+]([O-])c1cc(S(=O)(=O)NCCc2ccccn2)ccc1Cl,–,"inconclusive: 6.31 µM [inhibitor, single point]"
COC1CCCN(C(=O)c2ccc(OC3CCN(S(=O)(=O)N(C)C)CC3)cc2)C1 (centres undefined),inactive: -5.12%,–
CC(=O)N1c2ccc(S(=O)(=O)N(C)CC(=O)NC(C)c3ccccc3)cc2CC1C (centres undefined),inactive: -2.18% [at 46.1 µM],–
CCCCCCNC(=O)CC(c1ccccc1)c1cc(Br)ccc1O (centres undefined),–,"inconclusive: 35.5 µM [inhibitor, single point]"

SMILES,"activity change, negative = inhibition",Potency
Cc1ccc(-c2nc(CS(=O)(=O)CC(=O)N3CCN(c4ccccc4)CC3)c(C)o2)cc1,inactive: -0.62% [at 46.1 µM],–
CCCCCCSc1nnc2[nH]c(=O)cc(N)n12,inactive: 5.32%,–
O=C(Nc1nccs1)c1ccc(Cl)s1,inactive: -0.938%,–
CCCCOC(=O)c1ccc(S(N)(=O)=O)o1,–,"inconclusive: 31.6 µM [activator, single point]"
COC(=O)[C@@H]1C[C@@]1(C)[C@@H](NP(=O)(c1ccccc1)c1ccccc1)c1ccccc1,–,"inconclusive: 14.6 µM [activator, single point]"
COc1ccc(Nc2nnc(-n3nc(C)cc3C)c3ccccc23)cc1,inactive: -13.6% [at 46.1 µM],–
Clc1ncnc2scc(-c3ccccc3)c12,inactive: -18%,–
CC/C(=N/NC(=O)c1ccccc1)c1ccc(OCCN2CCOCC2)cc1,inactive: -10.4%,–
COc1cc(OCc2ccccc2)c(OC)c(OCc2ccccc2)c1,–,"inconclusive: 31.6 µM [inhibitor, partial curve, poor fit]"
CCc1cccc(C)c1NC(=O)COC(=O)C1CCN(S(=O)(=O)c2ccccc2)CC1,inactive: -3.37%,–
Fc1ccc(Oc2cnc3ccccc3n2)cc1,inactive: 7.37% [at 46.1 µM],–
CCOCCCN(C)C1CCN(C(=O)c2oc3ccccc3c2NC(=O)COc2ccc(F)cc2)CC1,–,"inconclusive: 7.08 µM [inhibitor, partial curve, poor fit]"
CCC1CCCCN1C(=O)c1ccc([N+](=O)[O-])o1 (centres undefined),–,"inconclusive: 10 µM [inhibitor, partial curve, poor fit]"
CCOc1ccc(-n2ccnc(SCC(=O)Nc3cccc(OC)c3)c2=O)cc1,–,"inconclusive: 35.5 µM [inhibitor, single point]"
COc1cccc(CNCc2ccc(SC)cc2)c1OC,–,"inconclusive: 8.2 µM [inhibitor, partial curve, poor fit]"
CCc1nn(-c2ccccc2)c2c1-c1cc(OC)c(OC)cc1C1(N2)C(=O)Nc2ccccc21 (centres undefined),inactive: -19.4%,–
COc1ccc(/C=C/C(=O)c2ccccc2)c(OC)c1,–,"inconclusive: 3.16 µM [inhibitor, single point]"
O=C1CSC(=Nc2ccc(O)cc2)N1c1ccc(O)cc1,–,"inconclusive: 3.16 µM [inhibitor, partial curve, poor fit]"
Clc1cccc(CN2CCSCC2)c1Cl,–,"inconclusive: 0.794 µM [inhibitor, full curve]"
O=C(NC(=S)N1CCN(C/C=C/c2ccccc2)CC1)c1c(F)cccc1F,–,"inconclusive: 1.26 µM [activator, single point]"
COc1ccc(N=Cc2c(O)n(-c3ccc(OC)cc3)c(=O)c3ccccc23)cc1,–,"inconclusive: 11.2 µM [inhibitor, partial curve, poor fit]"
CN(C)C=NC(=O)/C(C#N)=C1\CCc2ccccc2N1,–,"inconclusive: 15.8 µM [activator, partial curve]"
CCOc1ccc(NC(=O)c2ccc(CNc3c(NC4CCCCC4)c(=O)c3=O)cc2)cc1,inactive: -1.44%,–

# An excerpt of these results, with bars between the fields.
SMILES | activity change, negative = inhibition | Potency
CC(Sc1ncnc2sccc12)C(=O)Nc1ccc(S(=O)(=O)N2CCOCC2)cc1 (centres undefined) | inactive: 15% | –
CC1CCC2=NN(C(=O)c3ccco3)C(O)(C(F)(F)F)C2C1 (centres undefined) | – | inconclusive: 8.91 µM [inhibitor, partial curve, poor fit]
Cc1ccc2ncc(C(=O)c3ccc(C)c(C)c3)c(S(=O)(=O)c3ccccc3)c2c1 | – | inconclusive: 12.6 µM [inhibitor, partial curve, poor fit]
CC(=O)Nc1ccc(NC(=O)C(C)OC(=O)c2cccc(S(=O)(=O)N3CCCCCC3)c2)cc1 (centres undefined) | – | inconclusive: 12.6 µM [activator, single point]
NNc1ccc(Cc2ccc(Cl)cc2Cl)nn1 | – | inconclusive: 1.12 µM [inhibitor, partial curve, poor fit]
COc1cccc(OCCNC(=O)Nc2cc(F)c(F)cc2Cl)c1 | – | inconclusive: 7.08 µM [activator, full curve, poor fit]
CC1(C)CC(=O)C2=C(C1)C(c1cn(-c3ccccc3)nc1-c1ccccc1)C(C#N)=C(N)O2 (centres undefined) | – | inconclusive: 11.2 µM [inhibitor, partial curve, poor fit]
O=[N+]([O-])c1cc([As](=O)(O)c2ccc(O)c([N+](=O)[O-])c2)ccc1O | – | inconclusive: 35.5 µM [activator, single point]
Cc1ccc(NC(=O)COC(=O)C2CC2)cc1Cl | inactive: -3.32% | –
CCC1CCCCN1C(=O)c1ccc(OC2CCN(C(=O)CCOC)CC2)cc1 (centres undefined) | inactive: 0.775% [at 46.1 µM] | –
N#Cc1ccc(OCC(=O)OCC(=O)NCCC2=CCCCC2)cc1 | – | inconclusive: 31.6 µM [activator, single point]
O=C(Nc1cccc(F)c1)c1ccc(CSc2ccccc2)o1 | – | active: 7.31 µM
O=S(=O)(Nc1cccc2ccccc12)c1cccs1 | inactive: 9.05% [at 46.1 µM] | –
